Experimental data published in article PMC10313047, “During heat stress in Myxococcus xanthus, the CdbS PilZ domain protein, in concert with two PilZ-DnaK chaperones, perturbs chromosome organization and accelerates cell death” (PLOS Genetics, 2023).
These are yes or no findings as the source states them, for the method shown. Some results given as binding are weak or reduced against the parent protein; the word gives no strength. Where a sequence is shown, tags or fusion partners need not be part of it.

Target: DnaB (BACTH fusions) (Myxococcus xanthus) (UniProt Q1D285)
Experiment: two-hybrid; BACTH (bacterial adenylate cyclase-based two-hybrid); proteins fused to T25 and T18; blue colonies: interaction, white: none; two biological replicates

binding: binds
B1: DnaB (BACTH fusions) (protein, UniProt Q1D285 1-456)
chain: MENVHEFREGRKVHEDLAAERAVLGAVLADNTLIAAVGEVVHPEDFSSPAHAQIFEAMLKLDGQSRQVDHLTLAEELKVLGHLVSVGGPAYLMRLDQVVPIASNAVQYAQIVKDQAIRRRLAQAGREIQDLASQETGELEVLLDEAERKVFLLAEKKREGDLRPVSELMEHTLDLLDKMKAAATGITGLSTGYIDLDNQLTGLHAGELIILAARPGIGKTSFAMNIAVHAALKENKAVGIFSLEMPADQLLMRLLASTARVDMKKLRGGRLTPHDEEKFQEMAGALYNAPIYIDDSGGLSPFDLRAKARRVKQRDPRLSLIVIDYLQLMHQKGKVESRQLEVAEISRALKQLAKELEVPIIALSQLSRKVEDRKDGKPLLSDLRESGSIEQDADVVMFIHRETSDEAGPDGQPAQQSNTVIPVELIIAKQRNGPIGSIDLVFLAEYTRFESRSRSE
